Among the data in paper PMC6340964 are binding values, retold here.

No constants are given. Whether binding was seen depends on the method and setting. Binding seen in cells or lysates may run through a third protein. Some binding calls cover weakened binding; strength is not graded here. Tags and fused reporters may be left off the sequences shown.

For assay [1], the target named is T1, Tim23 protein with the G145L mutation, His-tagged (G145Lhis) (S. cerevisiae) (UniProt P32897).
T1 sequence: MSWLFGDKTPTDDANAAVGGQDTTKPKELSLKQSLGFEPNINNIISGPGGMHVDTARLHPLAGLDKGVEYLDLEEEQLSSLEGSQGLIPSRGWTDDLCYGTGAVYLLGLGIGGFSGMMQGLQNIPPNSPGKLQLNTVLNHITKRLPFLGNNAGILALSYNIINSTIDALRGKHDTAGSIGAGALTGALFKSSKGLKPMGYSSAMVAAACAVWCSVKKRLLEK
The assay can be described thus: pull-down; mitochondrial extracts (300 ug mitochondria) of TIM23 and tim23-G145L strains on Ni2+-NTA agarose beads, His-tagged Tim23 as bait, pull-down buffer with 0.05% digitonin, 45 min at 40°C as printed, three washes; total, unbound and bound fractions immunoblotted for Tim17p, Tim23p, Tim50p, Mgr2p. In general terms: Immunoblotting shows a protein as a band on a membrane.

Assay [2] addresses T2, Tim23 protein, wild type, His-tagged (WThis) (S. cerevisiae) (UniProt P32897).
T2 sequence: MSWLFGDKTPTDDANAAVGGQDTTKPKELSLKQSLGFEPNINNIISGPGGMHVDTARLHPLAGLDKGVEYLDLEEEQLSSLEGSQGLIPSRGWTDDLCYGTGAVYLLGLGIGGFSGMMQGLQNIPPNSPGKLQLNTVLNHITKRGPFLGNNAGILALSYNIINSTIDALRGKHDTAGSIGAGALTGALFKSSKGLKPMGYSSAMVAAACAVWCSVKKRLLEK
The assay is described as above.

B1: Tim17p (protein, UniProt P39515 1-158)
chain: MSADHSRDPCPIVILNDFGGAFAMGAIGGVVWHGIKGFRNSPLGERGSGAMSAIKARAPVLGGNFGVWGGLFSTFDCAVKAVRKREDPWNAIIAGFFTGGALAVRGGWRHTRNSSITCACLLGVIEGVGLMFQRYAAWQAKPMAPPLPEAPSSQPLQA
Take B1: the binding result in assay [1] and in assay [2] was “binds” in each case.

B2: Mgr2 protein (protein, UniProt Q02889 1-113)
chain: MPPLPQNYAQQQPSNWDKFKMGLMMGTTVGVCTGILFGGFAIATQGPGPDGVVRTLGKYIAGSAGTFGLFMSIGSIIRSDSESSPMSHPNLNLQQQARLEMWKLRAKYGIRKD
With B2, the results for the binding result in assay [1] and in assay [2] were “no binding” and “binds”, respectively.
